Measurements reported in PubChem BioAssay AID1259254 (NCATS, 2017).

Purpose: 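Gene knock-downs that lead to re-replication, shown by excess G2 DNA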 (primary screen)
Cell system: human HCT116 colorectal cancer cells
Reagents: single siRNA against human genes
Time to read-out: 3 days
Read-out: 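Imaged Hoechst DNA stain sorts each cell into a cycle phase by DNA amount; per plate, G2 fraction set to 0% for non-targeting and 100% for GMNN siRNA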
Scale: G2 robust z-score and G2 cells, % of GMNN control: higher = more G2 cells, more excess DNA replication
Active means: 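An siRNA counts as active if its G2 robust z-score lies at least 5 MADs above the screen median; here such calls match roughly 38% of GMNN control or more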
The deposit covers about 59,000 reagents; shown is an unselected part. About 1,550 of all reagents (2.6%) were called active. 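G2 share is only a proxy for re-replication; each gene was hit by three separate siRNAs, and active genes were retested.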 Reagents against one gene are numbered here. Not all columns of the deposit are shown. No sequences are given here. Not given: the amount of reagent.

gene symbol	reagent	G2 robust z-score	G2 cells, % of GMNN control	activity call
PDHA1 (pyruvate dehydrogenase E1 subunit alpha 1)	1	-1.73	-9.19	inactive
PDHA1 (pyruvate dehydrogenase E1 subunit alpha 1)	2	0.103	3.69	inactive
PDHA1 (pyruvate dehydrogenase E1 subunit alpha 1)	3	-0.871	-3.16	inactive
TMEM126A (transmembrane protein 126A)	1	-0.515	-0.655	inactive
TMEM126A (transmembrane protein 126A)	2	0.419	5.92	inactive
TMEM126A (transmembrane protein 126A)	3	-0.399	0.159	inactive
SOHLH2	1	0.764	8.34	inactive
SOHLH2	2	0.467	6.25	inactive
SOHLH2	3	0.694	7.85	inactive
LAMB3 (laminin subunit beta 3)	1	0.713	7.98	inactive
LAMB3 (laminin subunit beta 3)	2	-0.494	-0.509	inactive
LAMB3 (laminin subunit beta 3)	3	5.96	44.9	active
RGS12 (regulator of G protein signaling 12)	1	-0.47	-0.341	inactive
RGS12 (regulator of G protein signaling 12)	2	-0.0965	2.29	inactive
RGS12 (regulator of G protein signaling 12)	3	0.159	4.09	inactive
ARC (activity regulated cytoskeleton associated protein)	1	0.876	9.13	inactive
ARC (activity regulated cytoskeleton associated protein)	2	1.4	12.8	inactive
ARC (activity regulated cytoskeleton associated protein)	3	-0.582	-1.12	inactive
S100A10 (S100 calcium binding protein A10)	1	0.548	6.82	inactive
S100A10 (S100 calcium binding protein A10)	2	-0.814	-2.76	inactive
S100A10 (S100 calcium binding protein A10)	3	1.54	13.8	inactive
MEX3B (mex-3 RNA binding family member B)	1	-0.00739	2.92	inactive
MEX3B (mex-3 RNA binding family member B)	2	3.35	26.5	inactive
MEX3B (mex-3 RNA binding family member B)	3	2.15	18.1	inactive
ZNF223 (zinc finger protein 223)	1	-0.602	-1.27	inactive
ZNF223 (zinc finger protein 223)	2	-0.264	1.11	inactive
ZNF223 (zinc finger protein 223)	3	-0.172	1.76	inactive
ZHX3 (zinc fingers and homeoboxes 3)	1	0.117	3.79	inactive
ZHX3 (zinc fingers and homeoboxes 3)	2	0.719	8.03	inactive
ZHX3 (zinc fingers and homeoboxes 3)	3	-0.606	-1.3	inactive
BEX4 (brain expressed X-linked 4)	1	1.79	15.5	inactive
BEX4 (brain expressed X-linked 4)	2	-0.114	2.17	inactive
BEX4 (brain expressed X-linked 4)	3	-0.191	1.62	inactive
LOC646034 (retired record)	1	-0.483	-0.428	inactive
LOC646034 (retired record)	2	2.52	20.7	inactive
LOC646034 (retired record)	3	0.404	5.81	inactive
AHNAK2 (AHNAK nucleoprotein 2)	1	1.17	11.2	inactive
AHNAK2 (AHNAK nucleoprotein 2)	2	0.829	8.8	inactive
AHNAK2 (AHNAK nucleoprotein 2)	3	-0.512	-0.638	inactive
ATL2 (atlastin GTPase 2)	1	-0.182	1.69	inactive
ATL2 (atlastin GTPase 2)	2	-0.753	-2.33	inactive
ATL2 (atlastin GTPase 2)	3	-1.07	-4.59	inactive
SLC37A4	1	3.96	30.8	inactive
SLC37A4	2	-0.835	-2.91	inactive
SLC37A4	3	3.94	30.7	inactive
NRIP2 (nuclear receptor interacting protein 2)	1	0.0999	3.67	inactive
NRIP2 (nuclear receptor interacting protein 2)	2	1.18	11.3	inactive
NRIP2 (nuclear receptor interacting protein 2)	3	-0.241	1.27	inactive
VWC2 (von Willebrand factor C domain containing 2)	1	0.0164	3.08	inactive
VWC2 (von Willebrand factor C domain containing 2)	2	1.84	15.9	inactive
VWC2 (von Willebrand factor C domain containing 2)	3	2.23	18.6	inactive
STK32B (serine/threonine kinase 32B)	1	-1.17	-5.25	inactive
STK32B (serine/threonine kinase 32B)	2	0.952	9.67	inactive
STK32B (serine/threonine kinase 32B)	3	-0.382	0.28	inactive
NUP43 (nucleoporin 43)	1	1.96	16.7	inactive
NUP43 (nucleoporin 43)	2	0.827	8.78	inactive
NUP43 (nucleoporin 43)	3	1.99	17	inactive
USP17L2 (ubiquitin specific peptidase 17 like family member 2)	1	2.59	21.2	inactive
USP17L2 (ubiquitin specific peptidase 17 like family member 2)	2	-0.00385	2.94	inactive
USP17L2 (ubiquitin specific peptidase 17 like family member 2)	3	-0.306	0.814	inactive
IGSF9B (immunoglobulin superfamily member 9B)	1	0.0546	3.35	inactive
IGSF9B (immunoglobulin superfamily member 9B)	2	-0.244	1.25	inactive
IGSF9B (immunoglobulin superfamily member 9B)	3	0.0504	3.32	inactive
IGSF9B (immunoglobulin superfamily member 9B)	4	0.97	9.79	inactive
IGSF9B (immunoglobulin superfamily member 9B)	5	0.983	9.88	inactive
IGSF9B (immunoglobulin superfamily member 9B)	6	0.405	5.82	inactive
COLGALT2 (collagen beta(1-O)galactosyltransferase 2)	1	-0.0862	2.36	inactive
COLGALT2 (collagen beta(1-O)galactosyltransferase 2)	2	0.717	8.01	inactive
COLGALT2 (collagen beta(1-O)galactosyltransferase 2)	3	-0.777	-2.5	inactive

Not a retest: 5 of the entries above.
gene symbol	reagent	G2 robust z-score	G2 cells, % of GMNN control	activity call
VWC2 (von Willebrand factor C domain containing 2)	1	0.0164	3.08	inactive
VWC2 (von Willebrand factor C domain containing 2)	2	1.84	15.9	inactive
VWC2 (von Willebrand factor C domain containing 2)	3	2.23	18.6	inactive
STK32B (serine/threonine kinase 32B)	1	-1.17	-5.25	inactive
STK32B (serine/threonine kinase 32B)	2	0.952	9.67	inactive
